We go through 3 substances from article doi:10.1101/2021.08.16.456582.

By UniProt entry, the sequences of proteins in these tests, tags left out. Where a name states a change or a piece, a line headed by the entry shows the natural chain unless it says otherwise.
UniProt A0A0B4LF19: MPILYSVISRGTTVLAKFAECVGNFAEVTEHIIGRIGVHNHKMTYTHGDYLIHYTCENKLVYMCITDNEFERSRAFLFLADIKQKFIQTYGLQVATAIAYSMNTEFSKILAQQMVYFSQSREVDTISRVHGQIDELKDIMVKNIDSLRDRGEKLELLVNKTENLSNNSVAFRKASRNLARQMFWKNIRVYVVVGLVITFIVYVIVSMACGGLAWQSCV
UniProt O76742: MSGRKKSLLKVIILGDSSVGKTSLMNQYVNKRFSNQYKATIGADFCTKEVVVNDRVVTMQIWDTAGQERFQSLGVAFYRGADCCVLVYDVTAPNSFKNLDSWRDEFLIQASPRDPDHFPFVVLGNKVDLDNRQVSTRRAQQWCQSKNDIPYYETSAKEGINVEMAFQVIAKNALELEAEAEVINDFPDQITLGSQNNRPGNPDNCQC

In test [1] the target is 3xHA-TBC1D15-17 (Drosophila) (UniProt Q9VPL5). Kind of test: co-IP.
Test [2] addresses 6xMyc-VAMP7 (Drosophila). Kind of test: co-IP.

No constants are given. Whether binding was seen depends on the method and setting. Binding seen in cells or lysates may run through a third protein. For part of these data: Binding calls can cover weak binding; strength is not graded here.

6xMyc-VAMP7 (from UniProt A0A0B4LF19): in test [1], the binding entry is “binds”. For the substance “3xFlag-Rab7^wt (from UniProt O76742 1-207)”, the binding entry in test [2] is on record as “no binding”. Turning to “Rab7 (endogenous, adult fly brain) (from UniProt O76742 1-207)”, the binding result in test [1] was “binds”.
